Results are given in words; binding and its absence hold for the method and conditions named. In cells and extracts the contact can be indirect. These calls come from enrichment with a bait or labelling near it, and not all partners need be listed.
Biological target: serine/threonine‐specific protein phosphatase (PP1A) (human (in Huh7 cells; endogenous or transfected not stated)) (UniProt P62136)
Assay: affinity purification with mass spectrometry; IP from Huh7 cell lysate (IP/Western lysis buffer), antibody overnight at 4°C, protein A/G magnetic beads 6 h at 4°C, LC-MS/MS

Sequences of proteins named here, by UniProt entry; tags and fusion partners are left off.
UniProt P62136: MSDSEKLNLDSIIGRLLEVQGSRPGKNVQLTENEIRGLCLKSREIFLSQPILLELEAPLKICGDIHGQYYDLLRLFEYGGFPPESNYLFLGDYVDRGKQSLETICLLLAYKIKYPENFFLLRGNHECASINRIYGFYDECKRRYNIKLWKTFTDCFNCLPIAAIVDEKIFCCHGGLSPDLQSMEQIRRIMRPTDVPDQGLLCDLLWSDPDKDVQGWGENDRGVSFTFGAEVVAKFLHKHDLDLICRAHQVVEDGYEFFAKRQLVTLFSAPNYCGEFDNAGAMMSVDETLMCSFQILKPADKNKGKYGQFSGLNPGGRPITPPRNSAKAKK
UniProt Q14145: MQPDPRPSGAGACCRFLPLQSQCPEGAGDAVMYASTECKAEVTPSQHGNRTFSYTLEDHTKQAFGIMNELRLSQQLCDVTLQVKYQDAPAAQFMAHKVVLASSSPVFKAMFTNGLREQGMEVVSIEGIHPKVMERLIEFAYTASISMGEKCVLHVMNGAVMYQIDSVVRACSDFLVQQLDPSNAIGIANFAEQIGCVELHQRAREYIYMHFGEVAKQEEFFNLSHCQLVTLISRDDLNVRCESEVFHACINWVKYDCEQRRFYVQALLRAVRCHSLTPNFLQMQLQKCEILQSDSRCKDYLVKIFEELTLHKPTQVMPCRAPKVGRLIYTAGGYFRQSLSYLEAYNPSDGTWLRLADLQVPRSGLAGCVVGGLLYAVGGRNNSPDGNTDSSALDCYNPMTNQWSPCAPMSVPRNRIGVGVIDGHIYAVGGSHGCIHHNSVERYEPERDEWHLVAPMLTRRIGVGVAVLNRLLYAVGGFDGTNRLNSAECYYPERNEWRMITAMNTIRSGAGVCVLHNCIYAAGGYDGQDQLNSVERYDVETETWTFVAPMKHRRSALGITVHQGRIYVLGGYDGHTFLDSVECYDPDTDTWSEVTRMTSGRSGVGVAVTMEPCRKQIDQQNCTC

With “Kelch‐like ECH‐associated protein (Keap1) (from UniProt Q14145 1-624)” the binding was “binds”.
